Experimental data as given in publication PMC7806492.
No constants are given. Whether binding was seen depends on the method and setting. Binding seen in cells or lysates may run through a third protein. Binding can be weak; no strength is given.

Protein sequences, listed by entry. Tags and fused reporters are not part of them. Lines headed by an entry give the natural chain unless they say otherwise; changes in a name come on top.
UniProt P14780: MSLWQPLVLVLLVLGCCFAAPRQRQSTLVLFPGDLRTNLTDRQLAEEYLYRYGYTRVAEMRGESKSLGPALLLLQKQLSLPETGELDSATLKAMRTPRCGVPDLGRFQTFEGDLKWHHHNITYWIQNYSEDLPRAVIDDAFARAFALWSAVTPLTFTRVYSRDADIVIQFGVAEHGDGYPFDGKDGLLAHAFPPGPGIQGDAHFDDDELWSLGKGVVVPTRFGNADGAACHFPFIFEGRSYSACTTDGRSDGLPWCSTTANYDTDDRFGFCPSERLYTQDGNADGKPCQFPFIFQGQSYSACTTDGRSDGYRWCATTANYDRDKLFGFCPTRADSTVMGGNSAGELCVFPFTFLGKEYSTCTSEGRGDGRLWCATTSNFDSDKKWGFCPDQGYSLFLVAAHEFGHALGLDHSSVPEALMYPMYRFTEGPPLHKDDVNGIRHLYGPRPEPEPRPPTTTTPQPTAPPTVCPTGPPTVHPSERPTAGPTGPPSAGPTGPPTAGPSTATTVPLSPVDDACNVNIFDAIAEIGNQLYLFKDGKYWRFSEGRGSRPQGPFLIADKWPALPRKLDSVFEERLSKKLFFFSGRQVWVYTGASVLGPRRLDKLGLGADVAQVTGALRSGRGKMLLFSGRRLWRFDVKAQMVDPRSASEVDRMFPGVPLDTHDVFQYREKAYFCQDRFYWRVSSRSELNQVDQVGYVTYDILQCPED

Biological target: MMP9-SFB (human) (UniProt P14780)
Assay: co-IP; whole cell lysates of ESCC cells transfected with MDK-SFB, MMP2-SFB or MMP9-SFB; IP lysis buffer (50 mM Tris, 150 mM NaCl, 0.5% NP-40, 5 mM EDTA); anti-FLAG M2 beads overnight; blots for endogenous SRGN and CD44

B1: core protein of serglycin (SRGN) at ~28 kDa, endogenous in ESCC cell lysates (protein, UniProt P10124 28-158)
chain: YPTRRARYQWVRCNPDSNSANCLEEKGPMFELLPGESNKIPRLRTDLFPKTRIQDLNRIFPLSEDYSGSGFGSGSGSGSGSGSGFLTEMEQDYQLVDESDAFHDNLRSLDRNLPSDSQDLGQHGLEEDFML
With B1 the binding was “binds”.
